Measurements reported in PubChem BioAssay AID1159598 (NIAID, 2016).
This is one part, drawn at random, of 756 reagents tested. 142 of them (19%) count as active. 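Active includes both higher and lower reporter signal; each gene has six separate siRNAs, and no gene-level summary is deposited.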 A number with no mark means an inactive call. Reagents against one gene are numbered here. Not given: the amount of reagent.

- Aim: 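Knock-downs that alter flagellin-driven TNF reporter signal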
- Cell system: human THP-1 B5 reporter cells made macrophage-like with PMA
- Reagent: single siRNA against human genes
- Time to read-out: reporter read 48 to 72 hours after siRNA transfection
- Treatment: flagellin stimulation for 4 hours, dose not given
- Read-out: 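TNF promoter firefly luciferase over renilla after 4 h flagellin, plate median/MAD scaled, robust z versus negative controls, mean of replicates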
- Reading the numbers: TNF reporter z-score: higher = stronger TNF promoter activity than controls
- Hit rule: 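a row is called active when its replicate-mean z lies at or beyond 1.5 in either direction, so raised and lowered signal both count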
- Meaning of the calls: active = reporter shifted beyond 1.5 z, up or down; inactive = reporter within 1.5 z of controls

The opening 6 records, ahead of the listing:
target	reagent	TNF reporter z-score
MAP3K7 (GeneID 6885)	1	-2.8 (active)
MAP3K7 (GeneID 6885)	2	-2.65 (active)
MAP3K7 (GeneID 6885)	3	-5.66 (active)
MAP3K7 (GeneID 6885)	4	-2.28 (active)
MAP3K7 (GeneID 6885)	5	-2.72 (active)
MAP3K7 (GeneID 6885)	6	-2.98 (active)

Main list, repeating the preview:
target	reagent	TNF reporter z-score
MAP3K7 (GeneID 6885)	1	-2.8 (active)
MAP3K7 (GeneID 6885)	2	-2.65 (active)
MAP3K7 (GeneID 6885)	3	-5.66 (active)
MAP3K7 (GeneID 6885)	4	-2.28 (active)
MAP3K7 (GeneID 6885)	5	-2.72 (active)
MAP3K7 (GeneID 6885)	6	-2.98 (active)
LBP (GeneID 3929)	1	-0.338
LBP (GeneID 3929)	2	0.194
LBP (GeneID 3929)	3	0.683
LBP (GeneID 3929)	4	-1.24
LBP (GeneID 3929)	5	0.446
LBP (GeneID 3929)	6	-1.11
MAP2K1 (GeneID 5604)	1	0.575
MAP2K1 (GeneID 5604)	2	-0.53
MAP2K1 (GeneID 5604)	3	-0.753
MAP2K1 (GeneID 5604)	4	-0.155
MAP2K1 (GeneID 5604)	5	-0.738
MAP2K1 (GeneID 5604)	6	0.757
PIK3R5 (GeneID 23533)	1	-1.21
PIK3R5 (GeneID 23533)	2	-1.41
PIK3R5 (GeneID 23533)	3	-0.0766
PIK3R5 (GeneID 23533)	4	0.183
PIK3R5 (GeneID 23533)	5	-0.685
PIK3R5 (GeneID 23533)	6	-2.64 (active)
RIPK3 (GeneID 11035)	1	0.368
RIPK3 (GeneID 11035)	2	-0.302
RIPK3 (GeneID 11035)	3	0.575
RIPK3 (GeneID 11035)	4	-0.624
RIPK3 (GeneID 11035)	5	-0.239
RIPK3 (GeneID 11035)	6	0.0492
ELK1 (GeneID 2002)	1	-1.41
ELK1 (GeneID 2002)	2	-0.966
ELK1 (GeneID 2002)	3	-1.14
ELK1 (GeneID 2002)	4	0.291
ELK1 (GeneID 2002)	5	-0.446
ELK1 (GeneID 2002)	6	0.767
MAPK13 (GeneID 5603)	1	-2.51 (active)
MAPK13 (GeneID 5603)	2	-0.877
MAPK13 (GeneID 5603)	3	-1.96 (active)
MAPK13 (GeneID 5603)	4	-1.05
MAPK13 (GeneID 5603)	5	-0.499
MAPK13 (GeneID 5603)	6	-0.688
TRADD (GeneID 8717)	1	-0.865
TRADD (GeneID 8717)	2	-0.553
TRADD (GeneID 8717)	3	0.41
TRADD (GeneID 8717)	4	-2.93 (active)
TRADD (GeneID 8717)	5	1.11
TRADD (GeneID 8717)	6	-2.88 (active)
ELK4 (GeneID 2005)	1	-0.717
ELK4 (GeneID 2005)	2	-0.874
ELK4 (GeneID 2005)	3	0.222
ELK4 (GeneID 2005)	4	-0.112
ELK4 (GeneID 2005)	5	-0.792
ELK4 (GeneID 2005)	6	-1.3
RELB (GeneID 5971)	1	1.49
RELB (GeneID 5971)	2	-0.159
RELB (GeneID 5971)	3	0.757
RELB (GeneID 5971)	4	-1.35
RELB (GeneID 5971)	5	1.04
RELB (GeneID 5971)	6	-0.026
ATF7 (GeneID 11016)	1	-2.41 (active)
ATF7 (GeneID 11016)	2	-0.0462
ATF7 (GeneID 11016)	3	-0.768
ATF7 (GeneID 11016)	4	-1.22
ATF7 (GeneID 11016)	5	-0.945
ATF7 (GeneID 11016)	6	-1.2
EGR2 (GeneID 1959)	1	-0.693
EGR2 (GeneID 1959)	2	-0.913
EGR2 (GeneID 1959)	3	-0.294
EGR2 (GeneID 1959)	4	0.00173
EGR2 (GeneID 1959)	5	-0.789
EGR2 (GeneID 1959)	6	-1.33
TLR6 (GeneID 10333)	1	0.245
TLR6 (GeneID 10333)	2	-1.88 (active)
TLR6 (GeneID 10333)	3	-0.573
TLR6 (GeneID 10333)	4	-1.39
TLR6 (GeneID 10333)	5	0.209
TLR6 (GeneID 10333)	6	-0.942
